{"sequences": {"note": "Sequences of proteins named here, by UniProt entry; tags and fusion partners are left off. A change or cut given only in a name is not applied to a line headed by its entry.", "UniProt P36874": "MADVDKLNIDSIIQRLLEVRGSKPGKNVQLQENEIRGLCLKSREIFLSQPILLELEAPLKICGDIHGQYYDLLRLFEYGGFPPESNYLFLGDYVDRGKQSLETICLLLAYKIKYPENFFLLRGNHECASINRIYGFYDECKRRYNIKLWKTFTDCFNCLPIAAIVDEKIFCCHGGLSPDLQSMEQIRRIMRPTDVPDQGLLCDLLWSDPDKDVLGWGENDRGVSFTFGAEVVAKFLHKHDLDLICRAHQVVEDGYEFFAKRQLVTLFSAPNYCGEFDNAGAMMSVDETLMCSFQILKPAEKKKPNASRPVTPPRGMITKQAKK"}, "source": "paper PMC9346556", "binders": {"B1": {"name": "PbLRR1 expressed in Xenopus oocytes from cRNA (PbLRR1-pGADT7 template), HA-tagged (protein, UniProt A0A509ALG1 1-310)", "chain": "MATYNVLGEITTFDENETIISHQYSRIRKIENIEKCKKLMTLQLISNCIEKIENLENNIELEHLELYENSIKRIENISMLINLKVLDLSFNKIKVIENLETLVNLEELYLSSNKISKIENLKNCKKLRLLELGYNKIRKIENIENLKNLEELWLGKNKIEHLELPELPKLKKLSLQHNRLTKWDEKSINNVLSLNELYLSYNKLNEINDQIKELKYLKVLDLAYNEIENILICSELKHLEELWLNNNNIKSLDMIVKLKNNENLKTLYLEKNEIQDNLKDTYRDQIISILPQIQQLDALLISPTNLLKKK"}}, "key": {"[1]": {"target": "Xenopus PP1 catalytic subunit (XePP1c), endogenous in oocytes (Xenopus laevis (endogenous in oocytes)) (UniProt P36874)", "assay": "co-IP; Xenopus oocytes pre-injected with peptides (100 ng), control peptide P0 or PBS 1 h before PbLRR1 cRNA; extracts precipitated with anti-PP1 mAb (blot anti-HA) and with anti-HA (blot anti-PP1)"}, "[2]": {"target": "Xenopus PP1 catalytic subunit (XePP1c), endogenous in oocytes (Xenopus laevis (endogenous in oocytes)) (UniProt P36874)", "assay": "co-IP; Xenopus oocytes injected with PbLRR1 cRNA (60 ng), lysed after 15 h in buffer A (50 mM Hepes pH 7.4, 500 mM NaCl, 0.05% SDS); anti-PP1 mAb with protein A-sepharose, 4°C; blot with anti-HA and anti-PP1"}}, "note": "No constants are given. Whether binding was seen depends on the method and setting. Binding seen in cells or lysates may run through a third protein. A result given as binding can be weak or reduced; the word gives no strength. Tags and fused reporters may be left off the sequences shown."}
{"binder": "B1", "values": [{"measurement": "binding", "setting": "[1]", "result": "binds"}, {"measurement": "binding", "setting": "[2]", "result": "binds"}]}
